This is one part of the list. These are further read-outs of the screen, such as a control signal, another cell line or another target. No call is given for them. Compounds called inactive in the main read-out are mostly missing here. Words in brackets tell the shape of the fitted curve; partial curves, single points and poor fits give uncertain potencies.
Assay: qHTS Assay for Modulators of Lamin A Splicing
Conditions: HeLa LMNA splicing GFP/RFP minigene ratio, 48 h
In short: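 Read-out is the ratio of GFP to DsRed2 object intensity, acquired by 488 nm laser-scanning cytometry on HeLa lamin A-EGFP minigene reporter cells. Compound incubation 48 hrs at 37 °C in Opti-MEM with 2% FBS; DMSO 0.5% final.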

[1] = measured here: RFP viability control channel
[2] = measured here: GFP splicing reporter channel

| Structure (SMILES) | AC50 [1] | AC50 [2] |
| --- | --- | --- |
| O=C(COC(=O)/C=C/c1ccccc1)NCc1ccc(Cl)cc1 | 17.8 µM [falling, single point] | – |
| C[C@H](C(=O)O)c1cccc(Oc2ccccc2)c1 | – | 0.0562 µM [falling, full curve, poor fit] |
| CC(=O)N/N=C/c1cc(C(C)(C)C)cc(/C=N/NC(C)=O)c1O | 3.16 µM [falling, partial curve] | 0.282 µM [falling, partial curve] |
| CC(=O)c1cn(CC(=O)Nc2cccc(C)c2C)c2ccccc12 | – | 1.41 µM [rising, single point] |
| Cc1ccccc1C(=O)N1CCN(c2ccc(NC(=O)c3ccco3)cc2Cl)CC1 | 10 µM [rising, partial curve] | – |
| CCOC(=O)C1=C(O)/C(=C\c2sccc2C)N=C1C | – | 2 µM [falling, partial curve, poor fit] |
| CC(C)C(NC(=O)OCc1ccccc1)C(=O)OCC(=O)NC1CC1 (stereo unspecified) | 0.0316 µM [falling, full curve, poor fit] | 0.0398 µM [falling, full curve, poor fit] |
| Cc1cccc2cc(/C=N/NC(=O)CN3CCOCC3)c(Cl)nc12 | 20 µM [rising, single point] | – |
| Cc1ccc(-n2c(C)cc(C(=O)OCC(=O)N(CC(C)C)C3CCS(=O)(=O)C3)c2C)cc1 (stereo unspecified) | 3.55 µM [rising, single point] | 3.55 µM [rising, full curve] |
| COCCn1c(=O)cnc2cnc(Nc3cccc(OC)c3)nc21 | 20 µM [falling, partial curve] | 12.6 µM [falling, partial curve] |
| Cc1nn(-c2cccc(C(F)(F)F)c2)c(Cl)c1/C=N/n1cnnc1 | 12.6 µM [rising, partial curve, poor fit] | 7.08 µM [rising, partial curve, poor fit] |
| COC(=O)[C@@H](NC(=O)N1CCc2nc(-c3ccc(OC)cc3C)c3c(c2C1)CO[C@@H](c1ccccc1)C3)C(C)C | 0.398 µM [rising, partial curve] | – |
| NC(=O)NC(=O)CC1S/C(=N/N=C2\CSC(=O)N2)NC1=O (stereo unspecified) | 0.0501 µM [rising, single point] | – |
| COc1cc(C(=O)NNC(=O)c2cc(C)[nH]n2)cc(OC)c1OC | 0.00316 µM [falling, full curve, poor fit] | 0.00355 µM [falling, full curve, poor fit] |
| C/C(=N\NC(=S)NC(C)C)c1cccc([N+](=O)[O-])c1 | 15.8 µM [rising, single point] | 15.8 µM [rising, single point] |
| CCOC(=O)c1c(-c2ccccc2)csc1NC(=O)CSc1nncs1 | 20 µM [rising, partial curve] | – |
| CCC(=O)Nc1cccc(NC(=S)NC(=O)c2ccc(Cl)cc2)c1 | 12.6 µM [rising, partial curve, poor fit] | 20 µM [rising, single point] |
| CCOC(=O)c1c(NC(=O)C2=C(C)NC(=S)NC2c2ccc(C)cc2)sc(C)c1C (stereo unspecified) | 35.5 µM [rising, single point] | – |
| O=C(Nc1cccc(S(=O)(=O)N2CCCC2)c1)c1ccc2c(c1)OCO2 | 25.1 µM [rising, single point] | 15.8 µM [rising, single point] |
| Cc1nc(-c2cccc(S(=O)(=O)N3CC(C)CC(C)C3)c2)cs1 (stereo unspecified) | 20 µM [rising, single point] | 14.1 µM [rising, single point] |
| CCOc1ccc(NC(=O)Nc2cc(C)ccc2OC)cc1 | 3.55 µM [rising, single point] | 1 µM [rising, partial curve, poor fit] |
| CNC(=S)N/N=C/c1cc(Br)cc(Br)c1O | 12.6 µM [rising, single point] | – |
| COc1ccc(NS(=O)(=O)c2ccc3nc(COc4cccc5ccccc45)[nH]c3c2)cc1 | 12.6 µM [rising, partial curve] | – |
| CC(C)NC(=O)c1ccc(Cn2c(SCc3ccc(F)cc3)nc3cccnc32)cc1 | 3.16 µM [falling, single point] | 3.16 µM [falling, single point] |
| CCc1cc(SC#N)cc(CC)c1NC(=O)CCl | 0.398 µM [falling, full curve, poor fit] | – |
| CCCN(CCC)S(=O)(=O)c1ccc(NS(=O)(=O)c2ccc(F)cc2)cc1 | 17.8 µM [rising, single point] | 35.5 µM [rising, single point] |
| COc1ccc2c(c1)CCc1c(C(=O)N3CC4(C)CC3CC(C)(C)C4)noc1-2 (stereo unspecified) | 15.8 µM [rising, single point] | 35.5 µM [rising, single point] |

Rewritten with tabs: part of the list above
Structure (SMILES)	AC50 [1]	AC50 [2]
Cc1cccc2cc(/C=N/NC(=O)CN3CCOCC3)c(Cl)nc12	20 µM [rising, single point]	–
Cc1ccc(-n2c(C)cc(C(=O)OCC(=O)N(CC(C)C)C3CCS(=O)(=O)C3)c2C)cc1 (stereo unspecified)	3.55 µM [rising, single point]	3.55 µM [rising, full curve]
COCCn1c(=O)cnc2cnc(Nc3cccc(OC)c3)nc21	20 µM [falling, partial curve]	12.6 µM [falling, partial curve]
Cc1nn(-c2cccc(C(F)(F)F)c2)c(Cl)c1/C=N/n1cnnc1	12.6 µM [rising, partial curve, poor fit]	7.08 µM [rising, partial curve, poor fit]

(continued)

| Structure (SMILES) | AC50 [1] | AC50 [2] |
| --- | --- | --- |
| COc1ccccc1C(=O)NC(=O)CSc1cccc[n+]1[O-] | 0.00501 µM [falling, full curve, poor fit] | – |
| COc1ccc(NC(=O)c2cc3ccccc3o2)c(OC)c1 | – | 0.158 µM [falling, full curve, poor fit] |
| C/C(=N\N=C(/N)SC1CC(=O)N(c2cccc(Cl)c2)C1=O)c1cccs1 (stereo unspecified) | 22.4 µM [falling, single point] | 25.1 µM [falling, single point] |
| CC(=O)OC[C@H]1O[C@@H](Sc2cccc3cccnc23)[C@H](OC(C)=O)[C@@H](OC(C)=O)[C@H]1OC(C)=O | 7.08 µM [rising, full curve, poor fit] | 0.282 µM [rising, partial curve] |
| COC(=O)c1cccc(Cn2c(Cl)c(/C=N/NC(=O)c3ccccc3Cl)sc2=O)c1 | 5.62 µM [falling, partial curve] | 5.01 µM [falling, single point] |
| COc1ccc(Cl)cc1NC(=S)NCCN1CCOCC1 | – | 3.55 µM [falling, full curve, poor fit] |
| Cc1ccc(-n2cc(-c3ccccc3)c3c(=O)[nH]cnc32)cc1 | 35.5 µM [rising, single point] | – |
| COc1ccc(-c2csc3ncnc(Oc4ccc5c(C)cc(=O)oc5c4)c23)cc1 | 7.08 µM [rising, partial curve] | – |
| CC(C)c1cc(CNC(=O)CC2C(=O)NCCN2CC2CCCCC2)on1 (stereo unspecified) | 2 µM [falling, partial curve, poor fit] | – |
| CCC(=O)Nc1ccc2nc(SCCOc3ccc(C)cc3OC)sc2c1 | – | 22.4 µM [rising, partial curve, poor fit] |
| CCOC(=O)c1c(C)sc2c1N(C(C)=O)c1cc(Cl)ccc1S2 | 28.2 µM [rising, single point] | 20 µM [rising, single point] |
| O=c1c2ccccc2nc(SCc2cccc(F)c2)n1-c1cccc(S(=O)(=O)N2CCCC2)c1 | 35.5 µM [rising, single point] | – |
| O=C(/C=C/c1ccco1)NC(=S)Nc1ccc(N2CCCC2)cc1 | 20 µM [rising, partial curve, poor fit] | 11.2 µM [rising, partial curve, poor fit] |
| CC(c1ccco1)N(C(=O)COc1ccc(Cl)cc1Cl)c1ccccn1 (stereo unspecified) | 31.6 µM [rising, single point] | – |
| O=C(c1c(F)cccc1F)N1CCN(c2cccc(C(F)(F)F)c2)CC1 | 22.4 µM [rising, single point] | 22.4 µM [rising, single point] |
| Cc1ccccc1-n1c(C)cc(/C=C2/C(=N)N3C(c4ccccc4)=CSC3=NC2=O)c1C | 5.62 µM [rising, partial curve] | – |
| O=C(O)Cn1cccc1C(=O)c1ccccc1 | 0.794 µM [falling, full curve, poor fit] | – |
| COc1ccccc1N1CCN(C(=O)c2sc3nc(-c4ccc(F)cc4)cn3c2C)CC1 | 14.1 µM [rising, partial curve, poor fit] | – |
| CCN(CC)CCNC(=O)CN1N=C(c2ccc(OC)cc2)CCC1=O | – | 3.55 µM [rising, single point] |
| COc1cc(C(=O)NC(=S)N(CCc2ccccc2)CCc2ccccc2)cc(OC)c1OC | 22.4 µM [rising, partial curve] | 17.8 µM [rising, single point] |
| COc1ccc(CC(=O)NNC(=O)c2ccc(NC(C)=O)cc2)cc1 | – | 35.5 µM [falling, partial curve, poor fit] |
| Cc1nnc(NC(=O)CSc2nc3ccccc3[nH]2)s1 | 0.112 µM [falling, partial curve] | – |
| COc1ccc(C)cc1N(C(=O)c1ccc(F)cc1)c1nc2ccccc2s1 | 3.16 µM [rising, partial curve, poor fit] | 2.82 µM [rising, single point] |
| CC(c1ccc(C(C)(C)C)cc1)S(=O)CC(O)CO (stereo unspecified) | 0.0631 µM [rising, full curve, poor fit] | – |
| Cc1cc(C)c2c(=O)cc(C(F)(F)F)oc2n1 | 0.00501 µM [falling, full curve, poor fit] | – |
| CC1CCC(NC(=O)c2ccc(CS(=O)(=O)c3ccc(Cl)cc3)o2)CC1 (stereo unspecified) | – | 0.251 µM [falling, full curve, poor fit] |
| Cc1cccc(CNc2cc(-c3ccccc3Cl)ncn2)c1 | – | 3.55 µM [falling, partial curve, poor fit] |

Reference: PubChem BioAssay AID1487 (National Center for Advancing Translational Sciences (NCATS), 2009)
